{"source": "PubChem BioAssay AID652243 (Drosophila RNAi Screening Center, 2013)", "screen": "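Fly regulators of androgen-dependent reporter output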 (primary screen)", "system": "Drosophila S2R+ cells", "reagents": "long dsRNA against Drosophila genes", "duration": "72 h (48 h, then 24 h hormone)", "challenge": "synthetic androgen R1881 at 10 nM for 24 h", "measurement": "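Per-well raw luminescence of the androgen-driven firefly reporter and of the Renilla control, two replicates each, without normalisation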", "reading the numbers": "firefly reporter light: higher = more light from androgen-responsive reporter; Renilla control light: higher = more constitutive control signal (cell number, transfection)", "hit rule": "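Across duplicate plates, a knock-down whose log firefly/Renilla ratio shifted a set fold down or up from the GFP/LacZ control mean was a hit; the downward cut appears as both 1.5 and 3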", "calls": "active = hit: reporter lowered or raised; inactive = no hit", "note": "The deposit covers about 24,000 reagents; below is a random part of those with a known target gene and a result. Of all reagents, 246 (1%) are marked active. 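Plates not normalised; calls are printed but the firefly/Renilla ratio behind them is not deposited; fold cut for lowering reported inconsistently.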 Raw values vary from plate to plate and are shown uncorrected. Names joined by + are all predicted targets of the reagent. Not given: the amount of reagent."}
{"target gene": "daed + CG34174", "DRSC id": "DRSC27640", "firefly reporter light, replicate 1": 3.59e5, "firefly reporter light, replicate 2": 2.09e5, "Renilla control light, replicate 1": 6.77e5, "Renilla control light, replicate 2": 7.82e5, "outcome": "inactive"}
{"target gene": "red", "DRSC id": "DRSC23177", "firefly reporter light, replicate 1": 7.96e5, "firefly reporter light, replicate 2": 5.22e5, "Renilla control light, replicate 1": 9.13e5, "Renilla control light, replicate 2": 7.02e5, "outcome": "inactive"}
{"target gene": "RpS20", "DRSC id": "DRSC16836", "firefly reporter light, replicate 1": 1.75e5, "firefly reporter light, replicate 2": 1.69e5, "Renilla control light, replicate 1": 1.92e6, "Renilla control light, replicate 2": 1.42e6, "outcome": "inactive"}
{"target gene": "Girdin", "DRSC id": "DRSC08292", "firefly reporter light, replicate 1": 1.12e5, "firefly reporter light, replicate 2": 56429, "Renilla control light, replicate 1": 1.55e6, "Renilla control light, replicate 2": 8.68e5, "outcome": "inactive"}
{"target gene": "CG32983", "DRSC id": "DRSC22367", "firefly reporter light, replicate 1": 8.13e5, "firefly reporter light, replicate 2": 8.55e5, "Renilla control light, replicate 1": 5.65e5, "Renilla control light, replicate 2": 5.88e5, "outcome": "inactive"}
{"target gene": "Ugt37B1", "DRSC id": "DRSC03225", "firefly reporter light, replicate 1": 1.52e5, "firefly reporter light, replicate 2": 1.36e5, "Renilla control light, replicate 1": 1.87e6, "Renilla control light, replicate 2": 1.54e6, "outcome": "inactive"}
{"target gene": "fbp", "DRSC id": "DRSC02077", "firefly reporter light, replicate 1": 8.01e5, "firefly reporter light, replicate 2": 8.07e5, "Renilla control light, replicate 1": 2.36e6, "Renilla control light, replicate 2": 2.64e6, "outcome": "inactive"}
{"target gene": "fbp", "DRSC id": "DRSC39301", "outcome": "inactive"}
{"target gene": "gry", "DRSC id": "DRSC08028", "firefly reporter light, replicate 1": 1.38e5, "firefly reporter light, replicate 2": 1.87e5, "Renilla control light, replicate 1": 3.70e5, "Renilla control light, replicate 2": 5.58e5, "outcome": "inactive"}
{"target gene": "gry", "DRSC id": "DRSC08518", "firefly reporter light, replicate 1": 8.62e5, "firefly reporter light, replicate 2": 1.32e6, "Renilla control light, replicate 1": 1.95e6, "Renilla control light, replicate 2": 2.07e6, "outcome": "inactive"}
{"target gene": "CG10237", "DRSC id": "DRSC02029", "firefly reporter light, replicate 1": 7.88e5, "firefly reporter light, replicate 2": 7.86e5, "Renilla control light, replicate 1": 1.39e6, "Renilla control light, replicate 2": 2.27e6, "outcome": "inactive"}
{"target gene": "GstD2", "DRSC id": "DRSC16684", "firefly reporter light, replicate 1": 1.15e5, "firefly reporter light, replicate 2": 75885, "Renilla control light, replicate 1": 1.73e6, "Renilla control light, replicate 2": 1.48e6, "outcome": "inactive"}
{"target gene": "GstD2", "DRSC id": "DRSC27903", "firefly reporter light, replicate 1": 9.28e5, "firefly reporter light, replicate 2": 5.51e5, "Renilla control light, replicate 1": 2.43e6, "Renilla control light, replicate 2": 1.71e6, "outcome": "inactive"}

In a second layout: entries from further up
{"target gene":"GstD2","DRSC id":"DRSC16684","firefly reporter light, replicate 1":1.15e5,"firefly reporter light, replicate 2":75885,"Renilla control light, replicate 1":1.73e6,"Renilla control light, replicate 2":1.48e6,"outcome":"inactive"}
{"target gene":"GstD2","DRSC id":"DRSC27903","firefly reporter light, replicate 1":9.28e5,"firefly reporter light, replicate 2":5.51e5,"Renilla control light, replicate 1":2.43e6,"Renilla control light, replicate 2":1.71e6,"outcome":"inactive"}
